Laboratory results published in publication PMC4241993.
Results are given in words; binding and its absence hold for the method and conditions named. Binding seen in cells or lysates may run through a third protein. Some binding calls cover weakened binding; strength is not graded here. For some of these results: Tags and fused reporters may be left off the sequences shown.

The chains behind the UniProt entries cited, without tags or fusion partners. Residues count along the entry.
UniProt P51805, residues 1242-1871: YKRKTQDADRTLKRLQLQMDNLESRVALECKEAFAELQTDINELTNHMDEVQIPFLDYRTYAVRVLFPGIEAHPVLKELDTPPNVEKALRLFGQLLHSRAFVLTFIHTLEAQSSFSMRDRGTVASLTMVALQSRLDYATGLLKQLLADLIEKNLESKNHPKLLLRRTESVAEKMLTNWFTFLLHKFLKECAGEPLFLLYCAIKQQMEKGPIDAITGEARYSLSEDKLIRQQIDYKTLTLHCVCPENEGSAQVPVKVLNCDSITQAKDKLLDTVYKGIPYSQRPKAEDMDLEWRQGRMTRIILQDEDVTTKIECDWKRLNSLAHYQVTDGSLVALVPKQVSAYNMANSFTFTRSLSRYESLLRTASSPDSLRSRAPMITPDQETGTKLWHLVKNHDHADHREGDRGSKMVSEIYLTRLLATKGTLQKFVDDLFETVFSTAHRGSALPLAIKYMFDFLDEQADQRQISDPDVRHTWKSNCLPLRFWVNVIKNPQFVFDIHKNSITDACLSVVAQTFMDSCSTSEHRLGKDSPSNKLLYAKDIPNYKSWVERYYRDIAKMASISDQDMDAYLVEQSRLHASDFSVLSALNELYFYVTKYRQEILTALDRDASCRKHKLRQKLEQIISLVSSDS
UniProt Q9HCM2, residues 1311-1894: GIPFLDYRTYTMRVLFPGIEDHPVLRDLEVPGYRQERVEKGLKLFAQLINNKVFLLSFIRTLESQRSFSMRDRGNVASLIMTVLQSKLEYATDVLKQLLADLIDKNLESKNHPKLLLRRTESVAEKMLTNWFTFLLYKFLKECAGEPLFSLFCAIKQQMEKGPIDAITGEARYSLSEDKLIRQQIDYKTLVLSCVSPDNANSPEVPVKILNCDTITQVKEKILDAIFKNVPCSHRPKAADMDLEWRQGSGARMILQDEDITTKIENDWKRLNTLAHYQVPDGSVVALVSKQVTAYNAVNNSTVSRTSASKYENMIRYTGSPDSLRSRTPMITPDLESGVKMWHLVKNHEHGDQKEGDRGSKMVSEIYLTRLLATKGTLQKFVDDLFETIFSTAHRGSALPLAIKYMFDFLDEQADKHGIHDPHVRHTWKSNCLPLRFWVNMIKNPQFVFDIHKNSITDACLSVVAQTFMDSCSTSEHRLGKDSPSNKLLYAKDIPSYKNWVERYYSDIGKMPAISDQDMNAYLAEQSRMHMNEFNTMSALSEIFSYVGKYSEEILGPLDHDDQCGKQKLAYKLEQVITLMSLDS
UniProt P70207, residues 35-1894: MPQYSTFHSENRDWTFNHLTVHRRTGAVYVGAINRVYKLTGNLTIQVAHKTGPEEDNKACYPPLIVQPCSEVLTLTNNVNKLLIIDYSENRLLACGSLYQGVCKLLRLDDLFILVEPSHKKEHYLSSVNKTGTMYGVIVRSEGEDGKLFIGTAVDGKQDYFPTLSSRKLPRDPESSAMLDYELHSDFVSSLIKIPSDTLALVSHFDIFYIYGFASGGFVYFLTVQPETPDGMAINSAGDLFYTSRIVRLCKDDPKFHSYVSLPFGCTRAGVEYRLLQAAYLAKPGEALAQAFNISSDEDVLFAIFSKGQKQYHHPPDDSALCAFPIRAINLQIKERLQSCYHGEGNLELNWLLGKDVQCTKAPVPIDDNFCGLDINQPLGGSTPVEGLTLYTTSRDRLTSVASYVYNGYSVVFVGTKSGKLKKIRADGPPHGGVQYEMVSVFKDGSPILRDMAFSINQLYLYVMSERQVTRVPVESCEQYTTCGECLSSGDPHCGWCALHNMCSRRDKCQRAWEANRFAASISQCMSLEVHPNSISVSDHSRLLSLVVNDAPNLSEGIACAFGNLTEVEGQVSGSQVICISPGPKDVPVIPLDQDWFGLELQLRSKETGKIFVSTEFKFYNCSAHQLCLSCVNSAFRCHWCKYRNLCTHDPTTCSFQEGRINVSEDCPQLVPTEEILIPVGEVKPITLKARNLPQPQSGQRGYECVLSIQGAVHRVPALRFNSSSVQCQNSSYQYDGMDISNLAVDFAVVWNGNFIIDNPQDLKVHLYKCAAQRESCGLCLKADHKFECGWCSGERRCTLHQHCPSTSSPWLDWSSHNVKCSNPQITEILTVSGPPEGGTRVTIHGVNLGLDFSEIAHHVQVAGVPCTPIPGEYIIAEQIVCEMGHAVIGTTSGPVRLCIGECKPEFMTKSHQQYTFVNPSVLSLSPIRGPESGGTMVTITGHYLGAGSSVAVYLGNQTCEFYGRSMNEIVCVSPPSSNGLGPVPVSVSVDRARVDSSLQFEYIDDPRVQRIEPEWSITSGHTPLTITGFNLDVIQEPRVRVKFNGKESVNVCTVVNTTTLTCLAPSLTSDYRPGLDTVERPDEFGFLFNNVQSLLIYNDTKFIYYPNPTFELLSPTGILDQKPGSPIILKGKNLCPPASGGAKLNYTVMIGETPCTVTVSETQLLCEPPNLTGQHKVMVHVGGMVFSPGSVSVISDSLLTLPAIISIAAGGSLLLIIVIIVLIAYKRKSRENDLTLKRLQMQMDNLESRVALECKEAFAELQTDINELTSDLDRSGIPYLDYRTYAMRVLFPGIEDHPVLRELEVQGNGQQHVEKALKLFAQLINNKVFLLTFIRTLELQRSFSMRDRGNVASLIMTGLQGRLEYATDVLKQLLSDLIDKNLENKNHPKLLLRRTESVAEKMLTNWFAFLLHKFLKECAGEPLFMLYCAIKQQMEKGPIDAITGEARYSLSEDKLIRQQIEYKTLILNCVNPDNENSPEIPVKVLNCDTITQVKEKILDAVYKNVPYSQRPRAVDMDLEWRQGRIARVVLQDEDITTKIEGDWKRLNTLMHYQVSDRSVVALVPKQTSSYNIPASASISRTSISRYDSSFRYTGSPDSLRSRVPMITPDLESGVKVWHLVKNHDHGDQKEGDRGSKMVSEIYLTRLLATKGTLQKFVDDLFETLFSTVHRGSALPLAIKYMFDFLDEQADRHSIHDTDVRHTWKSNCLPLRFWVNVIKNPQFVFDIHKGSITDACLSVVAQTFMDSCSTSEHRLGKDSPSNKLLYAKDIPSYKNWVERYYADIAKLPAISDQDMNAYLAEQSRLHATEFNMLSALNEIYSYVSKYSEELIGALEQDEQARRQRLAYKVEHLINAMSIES
UniProt O75051, residues 35-1894: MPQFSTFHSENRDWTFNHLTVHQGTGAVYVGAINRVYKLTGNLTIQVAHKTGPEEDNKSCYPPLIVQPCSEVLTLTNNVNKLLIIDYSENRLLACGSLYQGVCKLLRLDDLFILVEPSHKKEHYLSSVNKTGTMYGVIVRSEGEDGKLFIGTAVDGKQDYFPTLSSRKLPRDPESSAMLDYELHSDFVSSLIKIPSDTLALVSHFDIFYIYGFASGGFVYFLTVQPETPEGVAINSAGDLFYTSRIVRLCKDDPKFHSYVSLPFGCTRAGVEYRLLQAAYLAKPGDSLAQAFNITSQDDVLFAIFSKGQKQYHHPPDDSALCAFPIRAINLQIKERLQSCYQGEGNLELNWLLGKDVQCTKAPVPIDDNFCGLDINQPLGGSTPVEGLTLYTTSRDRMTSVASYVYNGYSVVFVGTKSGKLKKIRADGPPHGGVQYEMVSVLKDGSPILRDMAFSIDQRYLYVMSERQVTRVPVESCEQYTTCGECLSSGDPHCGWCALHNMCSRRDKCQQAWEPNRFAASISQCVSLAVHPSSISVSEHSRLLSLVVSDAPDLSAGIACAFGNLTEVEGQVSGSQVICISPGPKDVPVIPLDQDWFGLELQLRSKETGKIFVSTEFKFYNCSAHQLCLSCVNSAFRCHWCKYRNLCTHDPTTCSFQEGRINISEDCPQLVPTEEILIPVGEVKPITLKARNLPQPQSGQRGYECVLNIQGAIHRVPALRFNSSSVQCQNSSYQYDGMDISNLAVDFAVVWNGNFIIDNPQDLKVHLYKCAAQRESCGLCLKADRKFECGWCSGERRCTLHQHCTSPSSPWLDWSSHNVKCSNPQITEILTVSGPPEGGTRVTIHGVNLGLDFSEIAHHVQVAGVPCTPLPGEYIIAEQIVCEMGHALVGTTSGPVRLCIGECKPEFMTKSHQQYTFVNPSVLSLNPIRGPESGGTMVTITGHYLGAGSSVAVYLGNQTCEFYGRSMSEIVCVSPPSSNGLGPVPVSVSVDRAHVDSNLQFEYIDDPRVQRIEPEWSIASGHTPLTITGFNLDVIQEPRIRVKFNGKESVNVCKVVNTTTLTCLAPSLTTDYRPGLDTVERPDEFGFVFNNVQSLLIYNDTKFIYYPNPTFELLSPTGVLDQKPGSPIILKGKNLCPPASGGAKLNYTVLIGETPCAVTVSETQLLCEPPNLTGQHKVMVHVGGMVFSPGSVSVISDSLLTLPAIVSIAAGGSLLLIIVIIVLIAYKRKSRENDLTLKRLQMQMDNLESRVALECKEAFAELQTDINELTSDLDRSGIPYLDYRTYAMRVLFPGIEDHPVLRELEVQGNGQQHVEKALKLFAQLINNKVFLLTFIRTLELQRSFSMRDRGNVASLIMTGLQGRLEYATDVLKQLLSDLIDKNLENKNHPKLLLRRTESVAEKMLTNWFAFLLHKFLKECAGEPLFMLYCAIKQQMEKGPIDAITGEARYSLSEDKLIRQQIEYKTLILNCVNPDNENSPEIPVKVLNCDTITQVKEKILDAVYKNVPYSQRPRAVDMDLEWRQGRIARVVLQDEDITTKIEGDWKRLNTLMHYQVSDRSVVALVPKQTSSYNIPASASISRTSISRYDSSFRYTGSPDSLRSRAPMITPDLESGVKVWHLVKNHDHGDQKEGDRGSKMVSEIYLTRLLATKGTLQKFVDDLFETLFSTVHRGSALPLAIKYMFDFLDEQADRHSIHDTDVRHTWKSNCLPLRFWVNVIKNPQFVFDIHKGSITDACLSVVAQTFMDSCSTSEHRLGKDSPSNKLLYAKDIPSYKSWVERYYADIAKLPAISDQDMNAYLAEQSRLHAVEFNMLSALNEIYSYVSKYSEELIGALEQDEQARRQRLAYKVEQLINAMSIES
UniProt Q9UIW2, residues 1306-1896: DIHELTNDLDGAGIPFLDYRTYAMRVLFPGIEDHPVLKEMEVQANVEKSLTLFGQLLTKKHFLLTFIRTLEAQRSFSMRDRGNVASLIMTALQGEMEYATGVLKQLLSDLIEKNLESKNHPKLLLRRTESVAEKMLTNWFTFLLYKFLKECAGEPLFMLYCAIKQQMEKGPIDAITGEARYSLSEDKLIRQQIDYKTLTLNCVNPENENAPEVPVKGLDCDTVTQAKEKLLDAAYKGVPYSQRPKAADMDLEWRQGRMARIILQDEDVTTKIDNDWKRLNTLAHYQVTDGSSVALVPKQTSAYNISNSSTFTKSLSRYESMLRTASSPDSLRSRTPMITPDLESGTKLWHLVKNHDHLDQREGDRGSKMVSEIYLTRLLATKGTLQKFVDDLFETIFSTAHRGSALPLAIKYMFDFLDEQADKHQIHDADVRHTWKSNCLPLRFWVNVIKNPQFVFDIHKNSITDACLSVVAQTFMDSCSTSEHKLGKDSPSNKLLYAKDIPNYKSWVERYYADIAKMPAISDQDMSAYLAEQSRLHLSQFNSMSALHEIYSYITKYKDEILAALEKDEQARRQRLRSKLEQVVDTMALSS

T1: KIAA1199-FLAG (human (cDNA from CaSki cells)) (UniProt Q8WUJ3)
T1 sequence: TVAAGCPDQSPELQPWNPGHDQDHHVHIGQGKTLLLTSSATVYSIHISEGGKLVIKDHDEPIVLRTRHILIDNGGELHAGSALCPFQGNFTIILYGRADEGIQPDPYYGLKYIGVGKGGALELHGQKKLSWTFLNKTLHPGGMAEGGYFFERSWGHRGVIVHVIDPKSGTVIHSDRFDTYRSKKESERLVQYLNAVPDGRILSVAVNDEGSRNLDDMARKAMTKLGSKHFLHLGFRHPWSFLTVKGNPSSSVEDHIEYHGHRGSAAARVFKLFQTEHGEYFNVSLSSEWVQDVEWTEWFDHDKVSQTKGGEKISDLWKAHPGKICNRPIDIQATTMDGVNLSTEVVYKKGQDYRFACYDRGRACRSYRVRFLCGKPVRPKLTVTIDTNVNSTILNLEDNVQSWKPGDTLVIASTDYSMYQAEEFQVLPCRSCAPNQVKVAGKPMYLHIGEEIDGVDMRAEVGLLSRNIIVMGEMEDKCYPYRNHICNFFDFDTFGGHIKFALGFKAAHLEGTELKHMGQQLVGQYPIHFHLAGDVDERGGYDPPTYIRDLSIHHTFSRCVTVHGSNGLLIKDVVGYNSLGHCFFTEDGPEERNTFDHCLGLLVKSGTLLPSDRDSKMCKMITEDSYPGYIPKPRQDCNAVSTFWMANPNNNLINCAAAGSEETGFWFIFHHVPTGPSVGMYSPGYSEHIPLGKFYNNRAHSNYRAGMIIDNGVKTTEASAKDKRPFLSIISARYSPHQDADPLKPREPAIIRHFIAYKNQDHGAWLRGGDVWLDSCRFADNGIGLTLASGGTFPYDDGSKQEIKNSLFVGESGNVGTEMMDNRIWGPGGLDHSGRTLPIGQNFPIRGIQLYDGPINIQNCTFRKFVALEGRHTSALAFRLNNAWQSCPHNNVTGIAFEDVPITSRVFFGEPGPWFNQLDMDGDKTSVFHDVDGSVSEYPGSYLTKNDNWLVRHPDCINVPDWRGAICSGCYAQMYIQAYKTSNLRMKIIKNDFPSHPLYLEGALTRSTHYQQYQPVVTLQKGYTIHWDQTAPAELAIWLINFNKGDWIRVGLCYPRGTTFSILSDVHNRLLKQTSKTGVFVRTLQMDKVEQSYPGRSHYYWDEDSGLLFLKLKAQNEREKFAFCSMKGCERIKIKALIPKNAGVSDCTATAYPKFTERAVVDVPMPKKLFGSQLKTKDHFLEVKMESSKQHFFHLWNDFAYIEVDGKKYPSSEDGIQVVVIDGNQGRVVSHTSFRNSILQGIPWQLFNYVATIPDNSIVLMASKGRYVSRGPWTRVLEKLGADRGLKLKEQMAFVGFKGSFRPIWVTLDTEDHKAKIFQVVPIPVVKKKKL

T2: ΔN100 KIAA1199 mutant (FLAG) (human (cDNA from CaSki cells)) (UniProt Q8WUJ3)
T2 sequence: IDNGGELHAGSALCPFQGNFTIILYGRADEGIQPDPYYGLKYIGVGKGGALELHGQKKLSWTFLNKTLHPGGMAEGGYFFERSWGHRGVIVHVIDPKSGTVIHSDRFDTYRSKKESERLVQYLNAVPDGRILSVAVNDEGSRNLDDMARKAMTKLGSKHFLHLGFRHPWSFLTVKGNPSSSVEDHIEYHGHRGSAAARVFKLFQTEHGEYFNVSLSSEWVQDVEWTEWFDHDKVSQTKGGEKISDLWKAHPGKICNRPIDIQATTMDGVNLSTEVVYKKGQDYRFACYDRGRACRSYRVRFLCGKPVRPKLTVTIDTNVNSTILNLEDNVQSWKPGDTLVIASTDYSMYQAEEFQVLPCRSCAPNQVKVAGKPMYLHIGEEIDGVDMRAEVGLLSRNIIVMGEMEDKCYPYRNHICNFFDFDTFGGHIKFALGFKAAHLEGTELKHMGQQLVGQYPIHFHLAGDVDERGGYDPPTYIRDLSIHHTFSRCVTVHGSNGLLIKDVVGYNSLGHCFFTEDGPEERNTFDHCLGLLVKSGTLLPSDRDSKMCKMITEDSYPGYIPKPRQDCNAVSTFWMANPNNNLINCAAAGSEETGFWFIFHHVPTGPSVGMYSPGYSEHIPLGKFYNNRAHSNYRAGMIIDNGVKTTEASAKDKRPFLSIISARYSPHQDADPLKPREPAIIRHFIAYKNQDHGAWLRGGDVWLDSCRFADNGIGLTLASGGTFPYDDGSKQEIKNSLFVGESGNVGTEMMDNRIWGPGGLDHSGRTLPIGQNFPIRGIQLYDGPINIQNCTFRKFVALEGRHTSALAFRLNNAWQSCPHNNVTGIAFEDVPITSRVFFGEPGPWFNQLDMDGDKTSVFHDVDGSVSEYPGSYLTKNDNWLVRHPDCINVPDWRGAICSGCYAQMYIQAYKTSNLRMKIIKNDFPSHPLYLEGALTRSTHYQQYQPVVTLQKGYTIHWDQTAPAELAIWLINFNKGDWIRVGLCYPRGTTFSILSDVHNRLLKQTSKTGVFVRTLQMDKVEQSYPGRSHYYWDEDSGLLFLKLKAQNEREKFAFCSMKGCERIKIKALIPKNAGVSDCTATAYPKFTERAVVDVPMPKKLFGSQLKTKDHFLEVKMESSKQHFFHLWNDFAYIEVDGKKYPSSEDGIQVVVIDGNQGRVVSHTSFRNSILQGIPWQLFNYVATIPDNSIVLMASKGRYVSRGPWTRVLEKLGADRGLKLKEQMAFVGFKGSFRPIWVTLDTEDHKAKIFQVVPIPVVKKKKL

T3: KIAA1199 (endogenous, CaSki cells) (human (endogenous in CaSki)) (UniProt Q8WUJ3)
T3 sequence: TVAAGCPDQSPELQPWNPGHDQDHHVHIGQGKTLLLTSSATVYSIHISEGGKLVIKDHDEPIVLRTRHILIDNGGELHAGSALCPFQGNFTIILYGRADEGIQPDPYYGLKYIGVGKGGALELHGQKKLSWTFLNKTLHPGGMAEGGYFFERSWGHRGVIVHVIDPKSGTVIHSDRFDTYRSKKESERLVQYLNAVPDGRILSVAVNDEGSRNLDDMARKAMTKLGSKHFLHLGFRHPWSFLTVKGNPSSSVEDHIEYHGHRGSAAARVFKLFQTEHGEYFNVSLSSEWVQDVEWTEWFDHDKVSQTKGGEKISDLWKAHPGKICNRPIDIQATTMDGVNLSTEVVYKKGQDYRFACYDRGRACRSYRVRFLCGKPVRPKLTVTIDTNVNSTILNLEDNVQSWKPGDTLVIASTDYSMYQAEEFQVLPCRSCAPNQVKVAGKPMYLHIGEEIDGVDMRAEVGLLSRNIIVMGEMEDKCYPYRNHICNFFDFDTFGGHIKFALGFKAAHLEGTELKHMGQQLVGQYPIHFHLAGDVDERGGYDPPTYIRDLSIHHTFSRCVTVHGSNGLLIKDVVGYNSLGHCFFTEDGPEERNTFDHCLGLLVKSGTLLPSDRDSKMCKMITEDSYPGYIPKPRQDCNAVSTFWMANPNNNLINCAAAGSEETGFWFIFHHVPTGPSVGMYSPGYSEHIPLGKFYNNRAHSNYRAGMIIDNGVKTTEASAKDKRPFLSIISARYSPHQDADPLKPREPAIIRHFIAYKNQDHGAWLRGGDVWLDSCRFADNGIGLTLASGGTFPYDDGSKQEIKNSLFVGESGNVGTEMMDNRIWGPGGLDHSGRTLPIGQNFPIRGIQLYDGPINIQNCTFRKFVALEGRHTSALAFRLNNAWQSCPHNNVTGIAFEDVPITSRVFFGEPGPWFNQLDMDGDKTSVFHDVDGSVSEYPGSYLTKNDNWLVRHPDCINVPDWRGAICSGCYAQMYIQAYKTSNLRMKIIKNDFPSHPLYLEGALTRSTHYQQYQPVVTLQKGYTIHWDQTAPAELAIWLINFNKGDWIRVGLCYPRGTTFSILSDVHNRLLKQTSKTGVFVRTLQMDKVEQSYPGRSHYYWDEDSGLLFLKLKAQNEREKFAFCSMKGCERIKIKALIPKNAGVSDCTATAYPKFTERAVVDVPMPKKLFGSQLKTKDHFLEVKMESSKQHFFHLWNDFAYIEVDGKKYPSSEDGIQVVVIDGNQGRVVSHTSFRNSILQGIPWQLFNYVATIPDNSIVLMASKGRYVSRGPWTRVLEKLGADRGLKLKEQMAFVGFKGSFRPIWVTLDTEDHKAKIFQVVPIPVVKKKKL


Assays:
[1] = molecular target: T1, KIAA1199-FLAG (human (cDNA from CaSki cells)); experiment: co-IP; HEK293 cells transfected with KIAA1199-FLAG constructs and Myc-tagged Plexin constructs; lysed 24 h after transfection; anti-FLAG IP (anti-HA as negative control) 4-6 h at 4 °C, five washes with lysis buffer; anti-Myc and anti-FLAG blots
[2] = molecular target: T2, ΔN100 KIAA1199 mutant (FLAG) (human (cDNA from CaSki cells)); experiment: as above
[3] = molecular target: T3, KIAA1199 (endogenous, CaSki cells) (human (endogenous in CaSki)); experiment: proximity ligation; endogenous proteins in fixed CaSki cells (4% formaldehyde); Duolink Red kit with anti-Plexin A2 monoclonal (MAB10421) and home-made anti-KIAA1199 polyclonal; KIAA1199-depleted cells as negative control
[4] = molecular target: EGFR (endogenous, CaSki cells) (human (endogenous in CaSki)) (UniProt P00533); experiment: co-IP; endogenous proteins; CaSki lysates (25 mM Tris-HCl pH 7.4, 150 mM NaCl, 1 mM EDTA, 1% NP-40); anti-EGFR IP overnight at 4 °C (anti-FLAG as negative control), five washes; blots for KIAA1199, Src, c-Cbl; cells untreated or EGF-stimulated; control, Plexin A2-depleted (Fig. 5d) or KIAA1199-depleted (Fig. 7a) cells

Molecule | binding [1] | other results
Myc-tagged cytoplasmic domain of Plexin A3 (amino acids 1,242 to 1,871) (from UniProt P51805 1242-1871) (domain or fragment) | no binding | –
Myc-tagged cytoplasmic domain of Plexin A4 (amino acids 1,311 to 1,894) (from UniProt Q9HCM2 1311-1894) (domain or fragment) | no binding | –
Myc-tagged mouse Plexin A2 (from UniProt P70207 35-1894) (receptor) | binds | binding [2]: no binding
Plexin A2 (endogenous, CaSki cells) (from UniProt O75051 35-1894) (receptor) | – | binding [3]: binds
Myc-tagged cytoplasmic domain of Plexin A1 (amino acids 1,306 to 1,896) (from UniProt Q9UIW2 1306-1896) (domain or fragment) | no binding | –
KIAA1199 (endogenous, CaSki cells) (protein, UniProt Q8WUJ3 31-1361) TVAAGCPDQSPELQPWNPGHDQDHHVHIGQGKTLLLTSSATVYSIHISEGGKLVIKDHDEPIVLRTRHILIDNGGELHAGSALCPFQGNFTIILYGRADEGIQPDPYYGLKYIGVGKGGALELHGQKKLSWTFLNKTLHPGGMAEGGYFFERSWGHRGVIVHVIDPKSGTVIHSDRFDTYRSKKESERLVQYLNAVPDGRILSVAVNDEGSRNLDDMARKAMTKLGSKHFLHLGFRHPWSFLTVKGNPSSSVEDHIEYHGHRGSAAARVFKLFQTEHGEYFNVSLSSEWVQDVEWTEWFDHDKVSQTKGGEKISDLWKAHPGKICNRPIDIQATTMDGVNLSTEVVYKKGQDYRFACYDRGRACRSYRVRFLCGKPVRPKLTVTIDTNVNSTILNLEDNVQSWKPGDTLVIASTDYSMYQAEEFQVLPCRSCAPNQVKVAGKPMYLHIGEEIDGVDMRAEVGLLSRNIIVMGEMEDKCYPYRNHICNFFDFDTFGGHIKFALGFKAAHLEGTELKHMGQQLVGQYPIHFHLAGDVDERGGYDPPTYIRDLSIHHTFSRCVTVHGSNGLLIKDVVGYNSLGHCFFTEDGPEERNTFDHCLGLLVKSGTLLPSDRDSKMCKMITEDSYPGYIPKPRQDCNAVSTFWMANPNNNLINCAAAGSEETGFWFIFHHVPTGPSVGMYSPGYSEHIPLGKFYNNRAHSNYRAGMIIDNGVKTTEASAKDKRPFLSIISARYSPHQDADPLKPREPAIIRHFIAYKNQDHGAWLRGGDVWLDSCRFADNGIGLTLASGGTFPYDDGSKQEIKNSLFVGESGNVGTEMMDNRIWGPGGLDHSGRTLPIGQNFPIRGIQLYDGPINIQNCTFRKFVALEGRHTSALAFRLNNAWQSCPHNNVTGIAFEDVPITSRVFFGEPGPWFNQLDMDGDKTSVFHDVDGSVSEYPGSYLTKNDNWLVRHPDCINVPDWRGAICSGCYAQMYIQAYKTSNLRMKIIKNDFPSHPLYLEGALTRSTHYQQYQPVVTLQKGYTIHWDQTAPAELAIWLINFNKGDWIRVGLCYPRGTTFSILSDVHNRLLKQTSKTGVFVRTLQMDKVEQSYPGRSHYYWDEDSGLLFLKLKAQNEREKFAFCSMKGCERIKIKALIPKNAGVSDCTATAYPKFTERAVVDVPMPKKLFGSQLKTKDHFLEVKMESSKQHFFHLWNDFAYIEVDGKKYPSSEDGIQVVVIDGNQGRVVSHTSFRNSILQGIPWQLFNYVATIPDNSIVLMASKGRYVSRGPWTRVLEKLGADRGLKLKEQMAFVGFKGSFRPIWVTLDTEDHKAKIFQVVPIPVVKKKKL | – | binding [4]: binds
